Data as given in PubChem BioAssay AID493246 (Drosophila RNAi Screening Center, 2011).
Assay: 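Genes fly cells need to grow and stay alive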 (primary screen). Cells: Drosophila Kc and S2R+ cells. Reagents: long dsRNA against Drosophila genes. Measured: 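Cell number per well after knock-down, printed as raw plate values; calls were based on per-plate z-scores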. Direction: Kc cell number and S2R+ cell number: higher = more cells remaining. Hit rule: 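Active when the per-plate z-score of cell number is 3 or more in the direction of fewer cells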.
The deposit covers about 21,000 reagents; below is a random part of those that have a named target and a result. In the full data, 429 (2%) got an active call. 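Values are raw and not normalised between plates; calls rest on per-plate z-scores that were not deposited.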 The numbers tell different reagents against one gene apart. A plus sign joins genes that one reagent is predicted to hit. The record does not give: the amount of reagent, the time to read-out.

Target gene | dsRNA no. | Kc cell number, rep 1 | Kc cell number, rep 2 | S2R+ cell number, rep 1 | S2R+ cell number, rep 2 | Outcome
CG15263 | 1 | 1.54e6 | 1.58e6 | 1.24e6 | 1.35e6 | inactive
Ir47a | 1 | 1.57e6 | 1.62e6 | 1.38e6 | 1.43e6 | inactive
CG5989 | 1 | 1.47e6 | 1.60e6 | 1.23e6 | 1.08e6 | inactive
CG17097 | 1 | 1.70e6 | 1.61e6 | 1.22e6 | 1.39e6 | inactive
CG5024 | 1 | 1.44e6 | 1.46e6 | 9.71e5 | 1.03e6 | inactive
JhI-26 | 1 | 1.31e6 | 1.37e6 | 1.21e6 | 1.20e6 | inactive
snRNA:U1:95Cc + snRNA:U1:95Cb | 1 | 9.92e5 | 1.41e6 | 1.02e6 | 1.01e6 | inactive
CG17350 | 1 | 1.63e6 | 1.68e6 | 1.25e6 | 3.51e5 | inactive
gammaCOP | 1 | 1.53e6 | 1.58e6 | 7.40e5 | 8.66e5 | inactive
CG4374 | 1 | 1.48e6 | 1.71e6 | 1.12e6 | 1.19e6 | inactive
Hph | 1 | 1.71e6 | 1.75e6 | 1.18e6 | 1.28e6 | inactive
Hph | 2 | 1.73e6 | 1.85e6 | 1.32e6 | 1.49e6 | inactive
CG34175 | 1 | 1.88e6 | 1.79e6 | 9.98e5 | 1.17e6 | inactive
Or83c | 1 | 1.50e6 | 1.55e6 | 1.31e6 | 1.36e6 | inactive
Pde6 | 1 | 1.63e6 | 1.69e6 | 1.21e6 | 1.33e6 | inactive
Pde6 | 2 | 1.37e6 | 1.34e6 | 1.11e6 | 1.24e6 | inactive
Pde6 | 3 | 1.38e6 | 1.39e6 | 1.12e6 | 1.25e6 | inactive
CG8202 | 1 | 1.33e6 | 1.37e6 | 1.29e6 | 1.39e6 | inactive
CG30159 | 1 | 1.33e6 | 1.42e6 | 1.18e6 | 1.26e6 | inactive
Cyp9b2 | 1 | 1.55e6 | 1.51e6 | 1.22e6 | 1.27e6 | inactive
Myd88 | 1 | 1.31e6 | 1.44e6 | 1.03e6 | 1.12e6 | inactive
CG1105 | 1 | 1.71e6 | 1.87e6 | 1.50e6 | 1.53e6 | inactive
lky | 1 | 1.48e6 | 1.50e6 | 1.08e6 | 1.18e6 | inactive
Acp53C14c | 1 | 5.17e5 | – | 7.26e5 | – | inactive
CG2839 | 1 | 1.54e6 | 1.57e6 | 1.02e6 | 1.19e6 | inactive
CG15124 | 1 | 1.61e6 | 1.61e6 | 1.28e6 | 1.51e6 | inactive
Usp20-33 | 1 | 1.44e6 | 1.50e6 | 1.14e6 | 1.22e6 | inactive
CG6923 | 1 | 1.58e6 | 1.62e6 | 1.20e6 | 1.33e6 | inactive
Hmgcr | 1 | 1.42e6 | 1.54e6 | 8.12e5 | 9.54e5 | inactive
POSH | 1 | 1.64e6 | 1.66e6 | 1.28e6 | 1.42e6 | inactive
CG7110 | 1 | 1.30e6 | 1.36e6 | 1.32e6 | 1.27e6 | inactive
CG7110 | 2 | 1.56e6 | 1.62e6 | 1.24e6 | 1.40e6 | inactive
Paics | 1 | 5.73e5 | – | 8.42e5 | – | inactive
Pfk | 1 | 1.36e6 | 1.39e6 | 1.04e6 | 1.17e6 | inactive
gd | 1 | 1.49e6 | 1.50e6 | 1.05e6 | 1.13e6 | inactive
crim | 1 | 1.37e6 | 1.39e6 | 1.04e6 | 1.11e6 | inactive
CG31862 | 1 | 1.67e6 | 1.74e6 | 1.14e6 | 1.26e6 | inactive
CG9967 | 1 | 1.74e6 | 1.56e6 | 1.04e6 | 1.14e6 | inactive
fidipidine | 1 | 1.50e6 | 1.56e6 | 1.15e6 | 1.27e6 | inactive
Tmem214 | 1 | 1.56e6 | 1.76e6 | 1.32e6 | 1.43e6 | inactive
Tmem214 | 2 | 1.72e6 | 1.80e6 | 1.38e6 | 1.50e6 | inactive
Bet1 | 1 | 1.82e6 | 1.91e6 | 1.11e6 | 1.20e6 | inactive
moi + Tgs1 | 1 | 1.42e6 | 1.55e6 | 9.69e5 | 1.03e6 | inactive
fz | 1 | 1.48e6 | 1.53e6 | 1.26e6 | 1.43e6 | inactive
Pde11 | 1 | 1.67e6 | 1.75e6 | 1.15e6 | 2.15e5 | inactive
yellow-e | 1 | 1.48e6 | 1.61e6 | 1.05e6 | 1.18e6 | inactive
yellow-e | 2 | 1.36e6 | 1.53e6 | 1.09e6 | 1.20e6 | inactive
CG34011 | 1 | 1.48e6 | 1.50e6 | 1.02e6 | 1.05e6 | inactive
rst | 1 | 1.11e6 | 1.23e6 | 1.07e6 | 1.14e6 | inactive
rst | 2 | 1.44e6 | 1.42e6 | 1.06e6 | 1.15e6 | inactive
Cbp20 | 1 | 1.39e6 | 1.48e6 | 7.78e5 | 7.96e5 | inactive
CG3702 | 1 | 1.29e6 | 1.33e6 | 1.07e6 | 1.24e6 | inactive
ninaC | 1 | 1.19e6 | 1.24e6 | 5.48e5 | 9.42e5 | inactive
Gug | 1 | 1.34e6 | 1.40e6 | 1.09e6 | 1.11e6 | inactive
CG13794 | 1 | 1.62e6 | 1.64e6 | 1.18e6 | 1.30e6 | inactive
RhoGAP68F | 1 | 1.41e6 | 1.53e6 | 1.24e6 | 1.02e6 | inactive
ACC | 1 | 8.56e5 | 1.02e6 | 7.23e5 | 8.98e5 | active
ACC | 2 | 1.07e6 | 1.11e6 | 9.15e5 | 9.75e5 | inactive
Cht9 | 1 | 1.30e6 | 1.38e6 | 1.08e6 | 1.19e6 | inactive
Ent3 | 1 | 1.24e6 | 1.45e6 | 1.24e6 | 8.80e5 | inactive
pps | 1 | 1.49e6 | 1.61e6 | 1.23e6 | 1.43e6 | inactive
CG11892 | 1 | 5.02e5 | – | 8.12e5 | – | inactive
CG10211 | 1 | 1.58e6 | 1.67e6 | 1.44e6 | 1.71e6 | inactive
mkg-p + Tpt | 1 | 1.26e6 | 1.46e6 | 1.21e6 | 1.08e6 | inactive
Chi | 1 | 1.31e6 | 1.42e6 | 1.08e6 | 1.11e6 | inactive
CG4004 | 1 | 6.04e5 | – | 8.53e5 | – | inactive
CG4004 | 2 | 1.61e6 | 1.57e6 | 1.05e6 | 1.13e6 | inactive
CG42322 | 1 | 1.49e6 | 1.56e6 | 1.18e6 | 1.28e6 | inactive
CG42322 | 2 | 1.25e6 | 1.23e6 | 1.07e6 | 1.15e6 | inactive
CG42322 | 3 | 1.39e6 | 1.32e6 | 9.24e5 | 1.06e6 | inactive
CG17026 | 1 | 1.27e6 | 1.49e6 | 1.20e6 | 1.33e6 | inactive
PVRAP | 1 | 1.67e6 | 1.62e6 | 1.12e6 | 1.13e6 | inactive
PVRAP | 2 | 1.67e6 | 1.69e6 | 1.18e6 | 1.27e6 | inactive
HmgZ | 1 | 5.97e5 | – | 8.94e5 | – | inactive
HmgZ | 2 | 1.79e6 | 1.80e6 | 1.19e6 | 2.55e5 | inactive

Laid out differently: 11 of the entries above
{"Target gene": "CG3702", "dsRNA no.": 1, "Kc cell number, rep 1": 1.29e6, "Kc cell number, rep 2": 1.33e6, "S2R+ cell number, rep 1": 1.07e6, "S2R+ cell number, rep 2": 1.24e6, "Outcome": "inactive"}
{"Target gene": "ninaC", "dsRNA no.": 1, "Kc cell number, rep 1": 1.19e6, "Kc cell number, rep 2": 1.24e6, "S2R+ cell number, rep 1": 5.48e5, "S2R+ cell number, rep 2": 9.42e5, "Outcome": "inactive"}
{"Target gene": "Gug", "dsRNA no.": 1, "Kc cell number, rep 1": 1.34e6, "Kc cell number, rep 2": 1.40e6, "S2R+ cell number, rep 1": 1.09e6, "S2R+ cell number, rep 2": 1.11e6, "Outcome": "inactive"}
{"Target gene": "CG13794", "dsRNA no.": 1, "Kc cell number, rep 1": 1.62e6, "Kc cell number, rep 2": 1.64e6, "S2R+ cell number, rep 1": 1.18e6, "S2R+ cell number, rep 2": 1.30e6, "Outcome": "inactive"}
{"Target gene": "RhoGAP68F", "dsRNA no.": 1, "Kc cell number, rep 1": 1.41e6, "Kc cell number, rep 2": 1.53e6, "S2R+ cell number, rep 1": 1.24e6, "S2R+ cell number, rep 2": 1.02e6, "Outcome": "inactive"}
{"Target gene": "ACC", "dsRNA no.": 1, "Kc cell number, rep 1": 8.56e5, "Kc cell number, rep 2": 1.02e6, "S2R+ cell number, rep 1": 7.23e5, "S2R+ cell number, rep 2": 8.98e5, "Outcome": "active"}
{"Target gene": "ACC", "dsRNA no.": 2, "Kc cell number, rep 1": 1.07e6, "Kc cell number, rep 2": 1.11e6, "S2R+ cell number, rep 1": 9.15e5, "S2R+ cell number, rep 2": 9.75e5, "Outcome": "inactive"}
{"Target gene": "Cht9", "dsRNA no.": 1, "Kc cell number, rep 1": 1.30e6, "Kc cell number, rep 2": 1.38e6, "S2R+ cell number, rep 1": 1.08e6, "S2R+ cell number, rep 2": 1.19e6, "Outcome": "inactive"}
{"Target gene": "Ent3", "dsRNA no.": 1, "Kc cell number, rep 1": 1.24e6, "Kc cell number, rep 2": 1.45e6, "S2R+ cell number, rep 1": 1.24e6, "S2R+ cell number, rep 2": 8.80e5, "Outcome": "inactive"}
{"Target gene": "pps", "dsRNA no.": 1, "Kc cell number, rep 1": 1.49e6, "Kc cell number, rep 2": 1.61e6, "S2R+ cell number, rep 1": 1.23e6, "S2R+ cell number, rep 2": 1.43e6, "Outcome": "inactive"}
{"Target gene": "CG11892", "dsRNA no.": 1, "Kc cell number, rep 1": 5.02e5, "S2R+ cell number, rep 1": 8.12e5, "Outcome": "inactive"}
